Results taken from article PMC3820564.
Results are given in words; binding and its absence hold for the method and conditions named. For some of these results: In cells and extracts the contact can be indirect. Some binding calls cover weakened binding; strength is not graded here. For some of these results: Sequences can lack the tags named with a protein.

The chains behind the UniProt entries cited, without tags or fusion partners.
UniProt P25788: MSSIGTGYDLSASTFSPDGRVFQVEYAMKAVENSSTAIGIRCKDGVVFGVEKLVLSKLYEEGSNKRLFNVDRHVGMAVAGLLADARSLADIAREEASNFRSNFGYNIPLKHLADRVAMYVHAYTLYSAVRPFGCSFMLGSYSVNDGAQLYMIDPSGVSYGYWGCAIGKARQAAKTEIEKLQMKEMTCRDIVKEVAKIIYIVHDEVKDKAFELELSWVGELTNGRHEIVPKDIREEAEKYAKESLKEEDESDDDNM
UniProt P49721: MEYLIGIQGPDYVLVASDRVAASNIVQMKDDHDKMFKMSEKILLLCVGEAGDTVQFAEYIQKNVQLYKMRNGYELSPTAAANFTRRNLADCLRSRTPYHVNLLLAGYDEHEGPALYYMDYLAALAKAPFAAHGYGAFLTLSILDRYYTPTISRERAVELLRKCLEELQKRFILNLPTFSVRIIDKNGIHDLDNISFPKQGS
UniProt P09022: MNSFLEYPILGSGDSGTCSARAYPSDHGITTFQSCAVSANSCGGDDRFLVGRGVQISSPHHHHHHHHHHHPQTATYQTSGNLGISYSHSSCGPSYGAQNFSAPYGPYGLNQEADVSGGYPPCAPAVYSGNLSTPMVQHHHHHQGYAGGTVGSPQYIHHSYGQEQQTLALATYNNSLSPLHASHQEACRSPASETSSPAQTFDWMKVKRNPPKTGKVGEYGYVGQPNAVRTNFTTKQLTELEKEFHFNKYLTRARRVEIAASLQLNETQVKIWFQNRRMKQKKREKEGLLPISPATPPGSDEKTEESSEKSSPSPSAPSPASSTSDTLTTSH
UniProt P31245: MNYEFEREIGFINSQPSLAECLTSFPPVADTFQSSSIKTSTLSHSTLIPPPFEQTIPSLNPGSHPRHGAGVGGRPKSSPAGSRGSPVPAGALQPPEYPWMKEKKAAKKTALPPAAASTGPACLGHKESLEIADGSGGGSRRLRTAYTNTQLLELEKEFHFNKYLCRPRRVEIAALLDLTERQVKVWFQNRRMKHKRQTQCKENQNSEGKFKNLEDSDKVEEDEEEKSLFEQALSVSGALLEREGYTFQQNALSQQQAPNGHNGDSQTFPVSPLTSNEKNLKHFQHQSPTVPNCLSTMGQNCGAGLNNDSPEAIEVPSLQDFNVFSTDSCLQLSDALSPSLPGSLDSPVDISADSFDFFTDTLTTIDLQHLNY

Key:
[1] = target: proteasome subunit alpha type-3 (PSMA3), GAL4-DB fusion (human) (UniProt P25788); test: two-hybrid; GAL4-based yeast two-hybrid; screen of the human ORFeome v3.1 with Hoxa2 as bait and as prey, then retest with AD-Hoxa2 as prey and DB fusions as bait; strains Y8800 and Y8930 mated at 30°C; GAL1-HIS3 reporter on medium lacking histidine, leucine and tryptophan; cycloheximide plates as control for autoactivation
[2] = target: proteasome subunit beta type-2 (PSMB2), GAL4-DB fusion (human) (UniProt P49721); test: as above
[3] = target: T1, N-terminal glutathione S-transferase (GST)-RCHY1 (full length) fusion protein (human) (UniProt Q96PM5); test: pull-down; co-precipitation on glutathione-agarose beads from lysates of HEK293T cells co-transfected with the GST fusion and the FLAG fusion; IPLS lysis buffer (0.5% NP-40, 20 mM Tris-HCl pH 7.5, 0.5 mM EDTA, 120 mM NaCl, 10% glycerol), beads overnight at 4 °C; blot with anti-FLAG M2; for the pairs with GST-RCHY1 the cells were treated with the proteasome inhibitor MG132 for 15 hours before lysis
T1 sequence: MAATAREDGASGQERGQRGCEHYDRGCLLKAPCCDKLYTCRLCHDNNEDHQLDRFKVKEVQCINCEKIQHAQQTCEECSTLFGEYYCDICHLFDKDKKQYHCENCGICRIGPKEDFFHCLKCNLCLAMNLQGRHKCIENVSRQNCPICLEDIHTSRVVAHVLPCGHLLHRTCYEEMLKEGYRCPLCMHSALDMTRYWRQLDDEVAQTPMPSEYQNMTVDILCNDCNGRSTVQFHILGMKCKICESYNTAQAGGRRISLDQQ

[4] = target: N-terminal triple FLAG fusion Hoxa1 (UniProt P09022); test: as above
[5] = target: N-terminal glutathione S-transferase (GST)-PSMA3 fusion protein (human) (UniProt P25788); test: as above
[6] = target: N-terminal glutathione S-transferase (GST)-PSMB2 fusion protein (human) (UniProt P49721); test: as above

Row | Substance | binding [1] | binding [2] | binding [3] | binding [4] | binding [5] | binding [6]
1 | Hoxa2 (GAL4 fusion for yeast two-hybrid) (from UniProt P31245 1-372) | binds | binds | – | – | – | –
2 | N-terminal triple FLAG fusion Hoxa1 (from UniProt P09022 1-331) | – | – | binds | binds | – | –
3 | N-terminally triple-FLAG-tagged Hoxa2 (from UniProt P31245 1-372) | – | – | binds | – | binds | binds
